Results deposited as PubChem BioAssay AID1259308 (NCATS, 2017)
Screen: 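Knock-downs that increase output of a recombinant reporter protein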 (primary screen). Cells: human HEK293 embryonic kidney cells stably expressing firefly luciferase (HEK-CMV-Luc2-Hygro). Reagents: single siRNA against human genes, 0.8 pmol siRNA per well. Timing: 72 h. Measured: 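Reporter luminescence and viable-cell signal on separate replicate plates, given as percent of non-targeting control and median/MAD z-scores, plus per-cell luciferase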. Scale: total luciferase, z-score and total luciferase, % of control: higher = more reporter protein produced; luciferase per cell, z-score: higher = more reporter output per viable cell; viable cells, % of control: higher = more viable cells. Active means: 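Active when the median/MAD z-score for overall luciferase is greater than 3; a gene was taken forward for validation with new siRNAs if at least two of its three siRNAs passed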. Meaning of the calls: active = raised luciferase; inactive = no rise.
In all, the deposit lists about 59,000 reagents; shown is an unselected part. Of all reagents, about 1,510 (2.6%) got an active call. 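Calls use total luciferase alone and ignore viability, so some active siRNAs may act by altering cell number.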 Reagents against one gene are numbered here.

gene | reagent no. | total luciferase, z-score | total luciferase, % of control | luciferase per cell, z-score | viable cells, % of control | activity call
RHOT2 (GeneID 89941) | 1 | 0.173 | 85.3 | 0.205 | 90.3 | inactive
RHOT2 (GeneID 89941) | 2 | 2.8 | 138 | 1.83 | 94.8 | inactive
RHOT2 (GeneID 89941) | 3 | -0.621 | 69.5 | -0.43 | 87 | inactive
PLOD1 (GeneID 5351) | 1 | -0.725 | 67.5 | -0.509 | 86.2 | inactive
PLOD1 (GeneID 5351) | 2 | 0.041 | 82.7 | -0.142 | 95.9 | inactive
PLOD1 (GeneID 5351) | 3 | 0.719 | 96.2 | 0.684 | 89.8 | inactive
FXYD6 (GeneID 53826) | 1 | 0.514 | 92.1 | 0.656 | 86.6 | inactive
FXYD6 (GeneID 53826) | 2 | -1.66 | 48.9 | -0.889 | 69 | inactive
FXYD6 (GeneID 53826) | 3 | -0.768 | 66.6 | -1.26 | 104 | inactive
CFAP100 (GeneID 348807) | 1 | 2.75 | 137 | 1.12 | 114 | inactive
CFAP100 (GeneID 348807) | 2 | 2.41 | 130 | 2.25 | 80.2 | inactive
CFAP100 (GeneID 348807) | 3 | -0.689 | 68.2 | -0.67 | 90.9 | inactive
KIFC3 (GeneID 3801) | 1 | 0.638 | 94.6 | 0.326 | 97 | inactive
KIFC3 (GeneID 3801) | 2 | -0.342 | 75.1 | -0.368 | 92.5 | inactive
KIFC3 (GeneID 3801) | 3 | -0.9 | 64 | -0.85 | 89.4 | inactive
CDH18 (GeneID 1016) | 1 | 0.489 | 91.6 | -0.222 | 109 | inactive
CDH18 (GeneID 1016) | 2 | -2.1 | 40.1 | -2.67 | 90.7 | inactive
CDH18 (GeneID 1016) | 3 | -0.141 | 79.1 | -0.556 | 102 | inactive
OR52E6 (GeneID 390078) | 1 | -0.188 | 78.2 | -0.0722 | 89 | inactive
OR52E6 (GeneID 390078) | 2 | -1.13 | 59.5 | -0.743 | 80.8 | inactive
OR52E6 (GeneID 390078) | 3 | 4.27 | 167 | 2.42 | 98.5 | active
RWDD3 (GeneID 25950) | 1 | 0.21 | 86.1 | 0.248 | 90.1 | inactive
RWDD3 (GeneID 25950) | 2 | -0.446 | 73 | -0.623 | 96.1 | inactive
RWDD3 (GeneID 25950) | 3 | 0.239 | 86.6 | -0.0387 | 97.8 | inactive
IGF2BP1 (GeneID 10642) | 1 | -0.381 | 74.3 | -0.524 | 95.3 | inactive
IGF2BP1 (GeneID 10642) | 2 | -1.25 | 57 | -1.24 | 88.4 | inactive
IGF2BP1 (GeneID 10642) | 3 | -0.947 | 63.1 | 0.0563 | 69.4 | inactive
LARP1BP3 (GeneID 644403) | 1 | 2.78 | 137 | 2.97 | 70.3 | inactive
LARP1BP3 (GeneID 644403) | 2 | 2.75 | 137 | 2.14 | 86.9 | inactive
LARP1BP3 (GeneID 644403) | 3 | -1.38 | 54.5 | -1.3 | 85.7 | inactive
RRP7A (GeneID 27341) | 1 | 0.222 | 86.3 | 0.48 | 85 | inactive
RRP7A (GeneID 27341) | 2 | 0.224 | 86.3 | 0.971 | 74.7 | inactive
RRP7A (GeneID 27341) | 3 | 0.458 | 91 | 0.681 | 85 | inactive
C2CD2 (GeneID 25966) | 1 | 0.686 | 95.5 | -0.116 | 110 | inactive
C2CD2 (GeneID 25966) | 2 | 2.28 | 127 | 1.72 | 90.5 | inactive
C2CD2 (GeneID 25966) | 3 | -0.404 | 73.9 | -0.463 | 93.2 | inactive
PIK3R6 (GeneID 146850) | 1 | 2.81 | 138 | 3.27 | 65.1 | inactive
PIK3R6 (GeneID 146850) | 2 | 0.019 | 82.3 | 1.09 | 69 | inactive
PIK3R6 (GeneID 146850) | 3 | 0.0765 | 83.4 | 0.0129 | 92.9 | inactive
SMYD4 (GeneID 114826) | 1 | 2.93 | 140 | 1.81 | 97.3 | inactive
SMYD4 (GeneID 114826) | 2 | 0.0441 | 82.8 | -0.33 | 101 | inactive
SMYD4 (GeneID 114826) | 3 | -0.619 | 69.6 | -0.943 | 99.7 | inactive
TMEM161A (GeneID 54929) | 1 | 1.84 | 118 | 1.26 | 95 | inactive
TMEM161A (GeneID 54929) | 2 | -1.36 | 54.9 | -1.55 | 92.4 | inactive
TMEM161A (GeneID 54929) | 3 | -1.13 | 59.4 | -0.876 | 83.5 | inactive
HSD17B12 (GeneID 51144) | 1 | -1.24 | 57.1 | -0.704 | 76.9 | inactive
HSD17B12 (GeneID 51144) | 2 | -2.13 | 39.5 | -0.968 | 57 | inactive
HSD17B12 (GeneID 51144) | 3 | 1.38 | 109 | 0.905 | 96.3 | inactive
LCTL (GeneID 197021) | 1 | -0.768 | 66.6 | -0.635 | 88 | inactive
LCTL (GeneID 197021) | 2 | -0.261 | 76.7 | -0.773 | 105 | inactive
LCTL (GeneID 197021) | 3 | 1.68 | 115 | 2.01 | 75.9 | inactive
IFT22 (GeneID 64792) | 1 | -1.16 | 58.7 | 0.304 | 60.6 | inactive
IFT22 (GeneID 64792) | 2 | 1.73 | 116 | 0.885 | 103 | inactive
IFT22 (GeneID 64792) | 3 | -1.06 | 60.8 | -0.178 | 71.2 | inactive
MAT2B (GeneID 27430) | 1 | -0.546 | 71 | -0.869 | 99.8 | inactive
MAT2B (GeneID 27430) | 2 | 1.08 | 103 | 0.835 | 92.6 | inactive
MAT2B (GeneID 27430) | 3 | 1.48 | 111 | 1.01 | 95.2 | inactive
DET1 (GeneID 55070) | 1 | -0.225 | 77.4 | -0.0953 | 88.7 | inactive
DET1 (GeneID 55070) | 2 | 0.48 | 91.4 | 0.0749 | 100 | inactive
DET1 (GeneID 55070) | 3 | -1.61 | 49.9 | -1.25 | 77.5 | inactive
ALKBH4 (GeneID 54784) | 1 | 2.95 | 141 | 2.31 | 85.6 | inactive
ALKBH4 (GeneID 54784) | 2 | -0.878 | 64.4 | -0.133 | 74.5 | inactive
ALKBH4 (GeneID 54784) | 3 | 0.793 | 97.7 | 0.992 | 84 | inactive
RBP2 (GeneID 5948) | 1 | -0.556 | 70.8 | -0.923 | 101 | inactive
RBP2 (GeneID 5948) | 2 | -1.15 | 59 | -1.73 | 104 | inactive
RBP2 (GeneID 5948) | 3 | -0.338 | 75.2 | -0.377 | 92.8 | inactive
CAST (GeneID 831) | 1 | -2.44 | 33.3 | -1.49 | 55.1 | inactive
CAST (GeneID 831) | 2 | -0.794 | 66.1 | -0.104 | 75.9 | inactive
CAST (GeneID 831) | 3 | 1.13 | 104 | 1.21 | 84.7 | inactive
AGTPBP1 (GeneID 23287) | 1 | -0.727 | 67.4 | -0.842 | 94.1 | inactive
AGTPBP1 (GeneID 23287) | 2 | -0.115 | 79.6 | -0.414 | 99.2 | inactive
AGTPBP1 (GeneID 23287) | 3 | -0.53 | 71.4 | -0.516 | 91.3 | inactive
TMEM106B (GeneID 54664) | 1 | 0.698 | 95.8 | 0.729 | 88.3 | inactive
TMEM106B (GeneID 54664) | 2 | 0.0443 | 82.8 | 0.408 | 83.1 | inactive
TMEM106B (GeneID 54664) | 3 | 2.38 | 129 | 1.58 | 95.2 | inactive

Look-ups from above.
HSD17B12 (GeneID 51144) #2, luciferase per cell, z-score = -0.968
Result for MAT2B (GeneID 27430) #1 under “luciferase per cell, z-score”: -0.869
Entry for RRP7A (GeneID 27341) #3 in “luciferase per cell, z-score”: 0.681
IFT22 (GeneID 64792) #1, activity call = inactive
Under “total luciferase, % of control”, RBP2 (GeneID 5948) #2 shows 59
ALKBH4 (GeneID 54784) #3, total luciferase, % of control: 97.7
